Our source for the binding values is paper doi:10.1101/2025.02.27.640518.

Residue numbers refer to the chain shown, from its start. Names and notes keep the numbering of the source. These are yes or no findings as the source states them, for the method shown. Binding calls can cover weak binding; strength is not graded here. Sequences can lack the tags named with a protein. For part of these data: Binding seen in cells or lysates may run through a third protein.

The target in assay [1] is T1, Arabidopsis eIF(iso)4E (yeast two-hybrid fusion) (Arabidopsis) (UniProt O04663).
T1 sequence: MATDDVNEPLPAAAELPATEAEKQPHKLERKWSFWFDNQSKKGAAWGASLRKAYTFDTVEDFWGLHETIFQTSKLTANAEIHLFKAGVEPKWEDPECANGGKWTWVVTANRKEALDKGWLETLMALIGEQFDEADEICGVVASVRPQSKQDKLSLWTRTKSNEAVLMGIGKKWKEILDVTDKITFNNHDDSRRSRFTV
The experiment in a line: two-hybrid.

Assay [2] concerns the target TuMV 6xHis-VPg-6xHIS-3xFLAG (turnip mosaic virus (TuMV)). In words: co-IP.

Consider “TuMV VPg (yeast two-hybrid fusion) (turnip mosaic virus (TuMV))”, for which the binding result in assay [1] is “binds”.

B1: YFP-eIF(iso)4E (Arabidopsis) (protein, UniProt O04663 1-198)
chain: T1 sequence
Regarding B1, the binding entry in assay [2] is “binds”.

B2: YFP-eIF(iso)4E^W92L/K149E (Arabidopsis) (protein, UniProt O04663 1-198)
chain: T1 sequence with W92L, K149E
With B2, the binding result in assay [2] is listed as “no binding”.
